{"source": "PubChem BioAssay AID1259275 (Sanger Institute, 2017)", "screen": "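Kinase and colorectal cancer genes needed for cancer cell survival, with or without drugs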 (primary screen)", "system": "COLO320HSR human colorectal cancer cells", "knock-down reagent": "siRNA pool against human genes", "challenge": "anchor drug added one day after transfection: BYL719 at 1 µM, cetuximab at 5 µg/ml or trametinib at 10 nM; DMSO as vehicle arm", "detection": "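Viability averaged over replicates as a fraction of the non-targeting pool, a robust z-score for knock-down alone, and synergy scores with BYL719 (1 µM), cetuximab (5 µg/ml) or trametinib (10 nM)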", "reading the numbers": "robust z-score, siRNA alone: higher = more viable cells; strongly negative means essential; viability, knock-down alone (DMSO): higher = more viable cells", "units": "viability, knock-down alone (DMSO) in fraction of control", "active means": "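a gene is called essential when its robust z-score without drug falls below -3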", "calls": "active = essential (siRNA alone); inactive = no change (siRNA alone)", "note": "Here is an unselected part of 794 reagents tested. 13 of all reagents (1.6%) were called active. 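Calls mark knock-downs lethal by themselves, not drug synergy; drugs went in a day after transfection, with DMSO as vehicle.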 Viability is capped at 1. Not all columns of the deposit are shown. Not stated in the record: the amount of reagent, the time to read-out."}
{"gene":"IRAK2 (interleukin 1 receptor associated kinase 2)","robust z-score, siRNA alone":-0.689,"viability, knock-down alone (DMSO)":0.872,"call":"inactive"}
{"gene":"EPHB1 (EPH receptor B1)","robust z-score, siRNA alone":0.255,"viability, knock-down alone (DMSO)":0.957,"call":"inactive"}
{"gene":"CSK (C-terminal Src kinase)","robust z-score, siRNA alone":0.187,"viability, knock-down alone (DMSO)":0.951,"call":"inactive"}
{"gene":"CSNK1G1 (casein kinase 1 gamma 1)","robust z-score, siRNA alone":-1.11,"viability, knock-down alone (DMSO)":0.834,"call":"inactive"}
{"gene":"PRKCD (protein kinase C delta)","robust z-score, siRNA alone":0.726,"viability, knock-down alone (DMSO)":1,"call":"inactive"}
{"gene":"CAMK1G (calcium/calmodulin dependent protein kinase IG)","robust z-score, siRNA alone":0.726,"viability, knock-down alone (DMSO)":1,"call":"inactive"}
{"gene":"PRPS1 (phosphoribosyl pyrophosphate synthetase 1)","robust z-score, siRNA alone":0.316,"viability, knock-down alone (DMSO)":0.963,"call":"inactive"}
{"gene":"CDK5R2 (cyclin dependent kinase 5 regulatory subunit 2)","robust z-score, siRNA alone":0.726,"viability, knock-down alone (DMSO)":1,"call":"inactive"}
{"gene":"AK3 (adenylate kinase 3)","robust z-score, siRNA alone":0.726,"viability, knock-down alone (DMSO)":1,"call":"inactive"}
{"gene":"CRIM1 (cysteine rich transmembrane BMP regulator 1)","robust z-score, siRNA alone":-0.227,"viability, knock-down alone (DMSO)":0.914,"call":"inactive"}
{"gene":"BCR (BCR activator of RhoGEF and GTPase)","robust z-score, siRNA alone":-1.12,"viability, knock-down alone (DMSO)":0.833,"call":"inactive"}
{"gene":"TGFBR3 (transforming growth factor beta receptor 3)","robust z-score, siRNA alone":0.726,"viability, knock-down alone (DMSO)":1,"call":"inactive"}

Sorted by “viability, knock-down alone (DMSO)” (highest first): some entries from above.
{"gene":"PRKCD (protein kinase C delta)","robust z-score, siRNA alone":0.726,"viability, knock-down alone (DMSO)":1,"call":"inactive"}
{"gene":"CAMK1G (calcium/calmodulin dependent protein kinase IG)","robust z-score, siRNA alone":0.726,"viability, knock-down alone (DMSO)":1,"call":"inactive"}
